# Some of the results follow. The data scatter; read single values as rough.
# Sequences of proteins named here, by UniProt entry; tags and fusion partners are left off. A change or cut given only in a name is not applied to a line headed by its entry. Residues count along the entry.
# UniProt P24588, whole entry, looked up: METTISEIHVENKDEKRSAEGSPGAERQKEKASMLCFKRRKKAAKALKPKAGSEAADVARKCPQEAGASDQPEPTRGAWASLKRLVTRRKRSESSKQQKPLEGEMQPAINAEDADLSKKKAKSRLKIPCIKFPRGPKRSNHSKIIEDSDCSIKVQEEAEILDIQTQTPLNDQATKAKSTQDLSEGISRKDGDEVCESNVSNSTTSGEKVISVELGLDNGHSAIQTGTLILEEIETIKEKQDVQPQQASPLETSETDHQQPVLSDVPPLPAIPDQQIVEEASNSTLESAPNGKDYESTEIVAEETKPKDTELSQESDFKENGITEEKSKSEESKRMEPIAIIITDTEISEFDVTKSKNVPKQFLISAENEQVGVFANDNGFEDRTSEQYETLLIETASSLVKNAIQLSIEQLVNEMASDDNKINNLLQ
# UniProt P55265: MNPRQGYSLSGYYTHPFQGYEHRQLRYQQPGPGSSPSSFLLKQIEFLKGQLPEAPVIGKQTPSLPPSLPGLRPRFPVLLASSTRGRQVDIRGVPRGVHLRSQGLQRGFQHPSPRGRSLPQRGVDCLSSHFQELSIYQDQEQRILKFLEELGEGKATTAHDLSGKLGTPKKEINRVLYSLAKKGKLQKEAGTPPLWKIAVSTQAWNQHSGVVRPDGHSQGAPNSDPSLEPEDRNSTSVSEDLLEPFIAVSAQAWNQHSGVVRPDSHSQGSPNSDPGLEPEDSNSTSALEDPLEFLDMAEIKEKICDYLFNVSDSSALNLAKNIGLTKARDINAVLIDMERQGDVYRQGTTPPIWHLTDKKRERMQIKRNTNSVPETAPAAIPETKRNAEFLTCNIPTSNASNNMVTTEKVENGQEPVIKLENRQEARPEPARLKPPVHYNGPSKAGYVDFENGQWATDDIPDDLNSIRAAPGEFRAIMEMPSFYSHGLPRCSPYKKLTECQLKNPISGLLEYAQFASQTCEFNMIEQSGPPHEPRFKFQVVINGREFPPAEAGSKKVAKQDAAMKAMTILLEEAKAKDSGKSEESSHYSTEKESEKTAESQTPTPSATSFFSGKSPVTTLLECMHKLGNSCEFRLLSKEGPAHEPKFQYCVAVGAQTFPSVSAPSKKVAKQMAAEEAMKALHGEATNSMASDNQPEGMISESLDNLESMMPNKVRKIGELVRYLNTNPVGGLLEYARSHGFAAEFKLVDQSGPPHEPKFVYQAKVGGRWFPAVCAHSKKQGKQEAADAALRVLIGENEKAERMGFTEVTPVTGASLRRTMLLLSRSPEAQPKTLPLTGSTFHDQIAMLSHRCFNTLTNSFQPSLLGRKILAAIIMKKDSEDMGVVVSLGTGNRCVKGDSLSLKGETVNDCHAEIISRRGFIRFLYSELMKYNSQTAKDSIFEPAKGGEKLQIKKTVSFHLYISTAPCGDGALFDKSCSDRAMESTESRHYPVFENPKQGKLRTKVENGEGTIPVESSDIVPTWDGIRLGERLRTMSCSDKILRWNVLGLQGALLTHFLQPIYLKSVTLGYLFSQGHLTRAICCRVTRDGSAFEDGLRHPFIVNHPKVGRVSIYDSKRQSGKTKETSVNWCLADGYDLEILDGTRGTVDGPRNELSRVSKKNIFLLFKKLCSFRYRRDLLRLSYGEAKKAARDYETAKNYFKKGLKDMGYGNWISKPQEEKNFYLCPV
# UniProt Q02952: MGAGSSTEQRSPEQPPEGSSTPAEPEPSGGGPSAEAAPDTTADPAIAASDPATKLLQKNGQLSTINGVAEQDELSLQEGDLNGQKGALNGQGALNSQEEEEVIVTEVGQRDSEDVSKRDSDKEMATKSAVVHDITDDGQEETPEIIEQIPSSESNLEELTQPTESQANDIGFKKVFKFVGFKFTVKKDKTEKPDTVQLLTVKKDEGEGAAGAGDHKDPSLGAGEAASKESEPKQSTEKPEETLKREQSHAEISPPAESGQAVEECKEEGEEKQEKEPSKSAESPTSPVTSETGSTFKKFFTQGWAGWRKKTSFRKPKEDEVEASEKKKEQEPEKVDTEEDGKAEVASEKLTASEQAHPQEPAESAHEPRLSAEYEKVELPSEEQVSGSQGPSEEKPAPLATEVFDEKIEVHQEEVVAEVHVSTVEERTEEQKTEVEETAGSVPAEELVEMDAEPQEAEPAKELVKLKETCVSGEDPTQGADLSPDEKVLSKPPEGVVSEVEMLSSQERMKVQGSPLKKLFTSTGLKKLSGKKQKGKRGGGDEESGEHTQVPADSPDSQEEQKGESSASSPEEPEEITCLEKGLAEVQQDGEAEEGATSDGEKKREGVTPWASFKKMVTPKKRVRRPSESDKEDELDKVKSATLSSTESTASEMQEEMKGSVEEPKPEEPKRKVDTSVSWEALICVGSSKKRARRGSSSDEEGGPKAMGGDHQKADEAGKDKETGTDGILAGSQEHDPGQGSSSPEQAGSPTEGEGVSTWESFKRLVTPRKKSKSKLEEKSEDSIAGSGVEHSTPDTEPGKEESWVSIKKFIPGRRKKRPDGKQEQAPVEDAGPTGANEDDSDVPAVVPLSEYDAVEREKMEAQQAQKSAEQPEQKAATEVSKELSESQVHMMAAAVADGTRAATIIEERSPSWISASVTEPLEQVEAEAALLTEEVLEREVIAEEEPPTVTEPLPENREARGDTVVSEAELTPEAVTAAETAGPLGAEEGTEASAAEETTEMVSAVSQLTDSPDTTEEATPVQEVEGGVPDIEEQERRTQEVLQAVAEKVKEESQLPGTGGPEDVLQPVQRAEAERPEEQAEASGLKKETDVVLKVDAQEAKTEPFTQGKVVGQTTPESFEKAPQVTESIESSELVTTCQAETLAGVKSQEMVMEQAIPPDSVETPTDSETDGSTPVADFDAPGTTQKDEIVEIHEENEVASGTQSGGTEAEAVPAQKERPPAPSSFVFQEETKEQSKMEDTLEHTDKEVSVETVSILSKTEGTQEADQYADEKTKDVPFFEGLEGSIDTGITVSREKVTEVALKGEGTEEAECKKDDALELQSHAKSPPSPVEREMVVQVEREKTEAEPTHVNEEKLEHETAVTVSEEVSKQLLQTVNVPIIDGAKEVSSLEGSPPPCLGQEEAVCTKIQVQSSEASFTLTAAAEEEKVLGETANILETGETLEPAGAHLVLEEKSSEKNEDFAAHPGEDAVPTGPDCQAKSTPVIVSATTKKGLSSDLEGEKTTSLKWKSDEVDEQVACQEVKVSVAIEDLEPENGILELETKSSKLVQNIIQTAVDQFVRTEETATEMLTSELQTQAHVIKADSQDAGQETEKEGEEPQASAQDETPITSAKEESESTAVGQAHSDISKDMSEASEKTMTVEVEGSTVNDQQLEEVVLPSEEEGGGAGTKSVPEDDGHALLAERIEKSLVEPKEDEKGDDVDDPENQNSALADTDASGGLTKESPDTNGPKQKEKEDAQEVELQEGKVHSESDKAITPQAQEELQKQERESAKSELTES
# UniProt Q96BT7: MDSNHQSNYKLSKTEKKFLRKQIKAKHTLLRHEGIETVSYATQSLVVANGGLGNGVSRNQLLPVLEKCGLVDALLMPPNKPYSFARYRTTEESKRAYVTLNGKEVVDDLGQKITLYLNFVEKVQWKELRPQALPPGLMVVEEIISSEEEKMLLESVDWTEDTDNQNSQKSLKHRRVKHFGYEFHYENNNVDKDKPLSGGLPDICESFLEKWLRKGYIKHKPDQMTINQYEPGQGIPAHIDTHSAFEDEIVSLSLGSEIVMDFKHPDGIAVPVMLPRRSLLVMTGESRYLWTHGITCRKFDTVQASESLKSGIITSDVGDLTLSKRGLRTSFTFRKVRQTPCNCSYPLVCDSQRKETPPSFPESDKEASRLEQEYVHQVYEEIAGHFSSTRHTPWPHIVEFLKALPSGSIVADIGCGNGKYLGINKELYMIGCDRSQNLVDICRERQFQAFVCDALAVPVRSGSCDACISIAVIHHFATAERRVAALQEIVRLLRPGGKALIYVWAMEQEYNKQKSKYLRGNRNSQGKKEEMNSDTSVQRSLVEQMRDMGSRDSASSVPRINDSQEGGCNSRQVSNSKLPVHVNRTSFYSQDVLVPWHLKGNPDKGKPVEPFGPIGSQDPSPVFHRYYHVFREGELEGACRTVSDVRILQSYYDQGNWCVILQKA
# UniProt Q12802, 1160-1193: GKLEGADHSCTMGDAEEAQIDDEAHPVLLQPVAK
# UniProt Q96AP0: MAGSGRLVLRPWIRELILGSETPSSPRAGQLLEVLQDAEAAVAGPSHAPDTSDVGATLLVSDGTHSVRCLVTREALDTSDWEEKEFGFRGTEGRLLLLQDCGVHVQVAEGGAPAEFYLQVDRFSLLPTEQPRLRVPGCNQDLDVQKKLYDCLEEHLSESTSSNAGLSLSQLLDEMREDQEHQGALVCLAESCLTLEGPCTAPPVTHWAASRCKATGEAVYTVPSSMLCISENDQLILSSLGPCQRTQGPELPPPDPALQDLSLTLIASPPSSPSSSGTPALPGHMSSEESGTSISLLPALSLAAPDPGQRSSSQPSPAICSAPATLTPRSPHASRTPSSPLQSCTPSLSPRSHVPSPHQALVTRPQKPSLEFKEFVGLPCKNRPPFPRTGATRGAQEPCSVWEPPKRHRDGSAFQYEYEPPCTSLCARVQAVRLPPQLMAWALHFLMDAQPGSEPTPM
# UniProt O43823: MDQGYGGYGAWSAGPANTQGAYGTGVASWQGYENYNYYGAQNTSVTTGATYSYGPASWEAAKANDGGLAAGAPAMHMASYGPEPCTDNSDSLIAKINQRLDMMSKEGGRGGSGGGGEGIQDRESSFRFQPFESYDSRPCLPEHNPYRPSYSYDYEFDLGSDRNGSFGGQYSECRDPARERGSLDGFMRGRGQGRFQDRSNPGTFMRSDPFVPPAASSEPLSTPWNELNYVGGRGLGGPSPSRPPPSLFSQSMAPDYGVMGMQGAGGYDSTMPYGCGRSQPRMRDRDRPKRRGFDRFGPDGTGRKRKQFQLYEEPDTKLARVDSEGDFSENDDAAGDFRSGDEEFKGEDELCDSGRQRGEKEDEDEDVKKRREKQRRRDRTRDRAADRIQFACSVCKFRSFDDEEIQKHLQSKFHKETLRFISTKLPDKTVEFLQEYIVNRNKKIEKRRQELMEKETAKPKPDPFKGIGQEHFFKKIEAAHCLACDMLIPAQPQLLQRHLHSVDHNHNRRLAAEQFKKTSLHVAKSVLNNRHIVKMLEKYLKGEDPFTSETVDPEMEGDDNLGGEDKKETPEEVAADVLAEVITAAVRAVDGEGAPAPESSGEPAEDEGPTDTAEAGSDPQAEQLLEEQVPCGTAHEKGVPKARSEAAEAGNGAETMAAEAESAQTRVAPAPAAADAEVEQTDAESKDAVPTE
# UniProt Q02252: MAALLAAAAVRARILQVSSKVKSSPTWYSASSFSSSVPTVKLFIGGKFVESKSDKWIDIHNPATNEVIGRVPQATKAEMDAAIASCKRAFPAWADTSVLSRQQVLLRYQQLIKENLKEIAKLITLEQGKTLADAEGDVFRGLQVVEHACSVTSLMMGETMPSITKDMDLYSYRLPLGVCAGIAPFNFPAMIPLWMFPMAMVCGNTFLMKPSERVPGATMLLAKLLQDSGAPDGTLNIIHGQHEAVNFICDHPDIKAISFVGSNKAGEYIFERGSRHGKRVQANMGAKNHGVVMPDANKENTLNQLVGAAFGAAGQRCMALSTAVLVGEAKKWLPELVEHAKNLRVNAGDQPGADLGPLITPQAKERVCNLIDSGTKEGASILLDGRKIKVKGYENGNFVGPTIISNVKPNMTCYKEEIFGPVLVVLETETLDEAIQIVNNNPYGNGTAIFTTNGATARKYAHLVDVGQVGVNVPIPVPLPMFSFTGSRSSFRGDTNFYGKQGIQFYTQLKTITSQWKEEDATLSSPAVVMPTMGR
# UniProt O43865: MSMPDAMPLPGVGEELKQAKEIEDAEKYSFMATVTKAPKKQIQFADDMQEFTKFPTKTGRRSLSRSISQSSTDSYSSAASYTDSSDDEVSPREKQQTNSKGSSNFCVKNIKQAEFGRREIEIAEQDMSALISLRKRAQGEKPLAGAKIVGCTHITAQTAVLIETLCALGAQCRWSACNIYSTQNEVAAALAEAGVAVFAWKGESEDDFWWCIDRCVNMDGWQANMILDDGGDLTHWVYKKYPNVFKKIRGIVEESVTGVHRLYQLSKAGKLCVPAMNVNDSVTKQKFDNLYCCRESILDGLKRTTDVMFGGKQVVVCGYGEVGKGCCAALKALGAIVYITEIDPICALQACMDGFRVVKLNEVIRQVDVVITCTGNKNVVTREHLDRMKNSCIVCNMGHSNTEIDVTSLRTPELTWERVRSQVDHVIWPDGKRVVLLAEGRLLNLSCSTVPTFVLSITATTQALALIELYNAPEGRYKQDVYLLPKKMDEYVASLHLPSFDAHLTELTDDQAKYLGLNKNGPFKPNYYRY
# How the values were obtained:
# [1] = compound: ClCC(=O)N[C@@H]1CCCc2ccccc12; test: log2 mean competition ratio of IA-DTB cysteine labelling (DMSO/compound) (log2 ratio); higher = stronger cysteine engagement by compound; conditions: treatment time: 4 h, cell line lysate: HEK293T
# Description: (§1)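 IA-DTB competitive cysteine chemoproteomics in HEK293T RIPA lysate. Lysates were treated with compound 29 or 30 at 50 or 200 µM for 4 h, then IA-DTB (500 µM, 1 h), trypsin-digested, NeutrAvidin-enriched and analysed by diaPASEF. Competition ratio = intensity DMSO / intensity compound (n=4 treated, n=64 DMSO); binding: mean log2 CR ≥ 1 and p ≤ 0.05 plus QC filters. Target is the cysteine site.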
# [2] = compound: ClCC(=O)N[C@H]1CCCc2ccccc12; test: as above; conditions: treatment time: 4 h, cell line lysate: HEK293T
# Description: as §1
target,measurement,setting,value
ACSF2 C77 (UniProt Q96CM8),log2 mean competition ratio,[1]; 50 µM,-0.0993
same,log2 mean competition ratio,[1]; 200 µM,-0.133
same,log2 mean competition ratio,[2]; 50 µM,-0.257
same,log2 mean competition ratio,[2]; 200 µM,-0.145
AKAP5 C150 (UniProt P24588),log2 mean competition ratio,[1]; 50 µM,-0.0534
same,log2 mean competition ratio,[1]; 200 µM,-0.0749
same,log2 mean competition ratio,[2]; 50 µM,-0.0456
same,log2 mean competition ratio,[2]; 200 µM,0.1
ADAR C622 (UniProt P55265),log2 mean competition ratio,[1]; 50 µM,0.171
same,log2 mean competition ratio,[1]; 200 µM,0.236
same,log2 mean competition ratio,[2]; 50 µM,0.113
same,log2 mean competition ratio,[2]; 200 µM,0.272
ALG2 C70 (UniProt Q9H553),log2 mean competition ratio,[1]; 50 µM,0.191
same,log2 mean competition ratio,[1]; 200 µM,0.216
same,log2 mean competition ratio,[2]; 50 µM,-0.204
same,log2 mean competition ratio,[2]; 200 µM,0.382
ALX1 C71,log2 mean competition ratio,[1]; 50 µM,-0.0188
same,log2 mean competition ratio,[1]; 200 µM,0.214
same,log2 mean competition ratio,[2]; 50 µM,0.123
same,log2 mean competition ratio,[2]; 200 µM,-0.378
AFDN C1684,log2 mean competition ratio,[1]; 50 µM,0.00587
same,log2 mean competition ratio,[1]; 200 µM,-0.228
same,log2 mean competition ratio,[2]; 50 µM,-0.266
same,log2 mean competition ratio,[2]; 200 µM,-0.258
ANAPC5 C86 (UniProt Q9UJX4),log2 mean competition ratio,[1]; 50 µM,-0.327
same,log2 mean competition ratio,[1]; 200 µM,0.0707
same,log2 mean competition ratio,[2]; 50 µM,-0.107
same,log2 mean competition ratio,[2]; 200 µM,0.126
ACIN1 C546,log2 mean competition ratio,[1]; 50 µM,-0.153
same,log2 mean competition ratio,[1]; 200 µM,-0.333
same,log2 mean competition ratio,[2]; 50 µM,0.28
same,log2 mean competition ratio,[2]; 200 µM,-0.0905
AKAP12 C1521 (UniProt Q02952),log2 mean competition ratio,[1]; 50 µM,-0.272
same,log2 mean competition ratio,[1]; 200 µM,-0.0371
same,log2 mean competition ratio,[2]; 50 µM,-0.582
same,log2 mean competition ratio,[2]; 200 µM,-0.0507
ALKBH8 C568 (UniProt Q96BT7),log2 mean competition ratio,[1]; 50 µM,0.104
same,log2 mean competition ratio,[1]; 200 µM,0.429
same,log2 mean competition ratio,[2]; 50 µM,-0.148
same,log2 mean competition ratio,[2]; 200 µM,-0.0862
AKAP13 C1169 (UniProt Q12802),log2 mean competition ratio,[1]; 50 µM,-0.23
same,log2 mean competition ratio,[1]; 200 µM,-0.314
same,log2 mean competition ratio,[2]; 50 µM,0.116
same,log2 mean competition ratio,[2]; 200 µM,-0.214
AGPS C214 (UniProt O00116),log2 mean competition ratio,[1]; 50 µM,0.139
same,log2 mean competition ratio,[1]; 200 µM,-0.215
same,log2 mean competition ratio,[2]; 50 µM,-0.279
same,log2 mean competition ratio,[2]; 200 µM,-0.169
AJUBA C270 (UniProt Q96IF1),log2 mean competition ratio,[1]; 50 µM,0.179
same,log2 mean competition ratio,[1]; 200 µM,0.367
same,log2 mean competition ratio,[2]; 50 µM,0.2
same,log2 mean competition ratio,[2]; 200 µM,0.168
ACD C380 (UniProt Q96AP0),log2 mean competition ratio,[1]; 50 µM,0.24
same,log2 mean competition ratio,[1]; 200 µM,0.299
same,log2 mean competition ratio,[2]; 50 µM,0.446
same,log2 mean competition ratio,[2]; 200 µM,0.411
ALMS1 C2993 (UniProt Q8TCU4),log2 mean competition ratio,[1]; 50 µM,0.169
same,log2 mean competition ratio,[1]; 200 µM,0.0247
same,log2 mean competition ratio,[2]; 50 µM,-0.151
same,log2 mean competition ratio,[2]; 200 µM,0.0367
AKAP8 C351 (UniProt O43823),log2 mean competition ratio,[1]; 50 µM,-0.258
same,log2 mean competition ratio,[1]; 200 µM,-0.226
same,log2 mean competition ratio,[2]; 50 µM,-0.517
same,log2 mean competition ratio,[2]; 200 µM,0.129
ACSL3 C450 (UniProt O95573),log2 mean competition ratio,[1]; 50 µM,0.104
same,log2 mean competition ratio,[1]; 200 µM,0.174
same,log2 mean competition ratio,[2]; 50 µM,0.0649
same,log2 mean competition ratio,[2]; 200 µM,0.0927
AKAP11 C1488 (UniProt Q9UKA4),log2 mean competition ratio,[1]; 50 µM,-0.129
same,log2 mean competition ratio,[1]; 200 µM,0.477
same,log2 mean competition ratio,[2]; 50 µM,-0.0487
same,log2 mean competition ratio,[2]; 200 µM,0.247
ALDH6A1 C317 (UniProt Q02252),log2 mean competition ratio,[1]; 50 µM,1.12
same,log2 mean competition ratio,[1]; 200 µM,0.737
same,log2 mean competition ratio,[2]; 50 µM,0.637
same,log2 mean competition ratio,[2]; 200 µM,0.389
ALDH9A1 C96 (UniProt P49189),log2 mean competition ratio,[1]; 50 µM,-0.466
same,log2 mean competition ratio,[1]; 200 µM,-0.245
same,log2 mean competition ratio,[2]; 50 µM,-0.754
same,log2 mean competition ratio,[2]; 200 µM,-0.72
AGGF1 C307 (UniProt Q8N302),log2 mean competition ratio,[1]; 50 µM,-0.462
same,log2 mean competition ratio,[1]; 200 µM,0.489
same,log2 mean competition ratio,[2]; 50 µM,-0.53
same,log2 mean competition ratio,[2]; 200 µM,0.00976
ANK3 C4233 (UniProt Q12955),log2 mean competition ratio,[1]; 50 µM,0.608
same,log2 mean competition ratio,[1]; 200 µM,0.195
same,log2 mean competition ratio,[2]; 50 µM,0.42
same,log2 mean competition ratio,[2]; 200 µM,-0.154
AHCYL1 C317 (UniProt O43865),log2 mean competition ratio,[1]; 50 µM,-0.391
same,log2 mean competition ratio,[1]; 200 µM,-0.261
same,log2 mean competition ratio,[2]; 50 µM,-0.403
same,log2 mean competition ratio,[2]; 200 µM,-0.0274

# 4 consecutive entries already listed, for reference:
target,measurement,setting,value
AGGF1 C307 (UniProt Q8N302),log2 mean competition ratio,[2]; 50 µM,-0.53
same,log2 mean competition ratio,[2]; 200 µM,0.00976
ANK3 C4233 (UniProt Q12955),log2 mean competition ratio,[1]; 50 µM,0.608
same,log2 mean competition ratio,[1]; 200 µM,0.195
